Experimental findings from PMC4129401 are described below.

T1: 3×FLAG-FAM161A (full-length) (human) (UniProt Q3B820)
T1 sequence: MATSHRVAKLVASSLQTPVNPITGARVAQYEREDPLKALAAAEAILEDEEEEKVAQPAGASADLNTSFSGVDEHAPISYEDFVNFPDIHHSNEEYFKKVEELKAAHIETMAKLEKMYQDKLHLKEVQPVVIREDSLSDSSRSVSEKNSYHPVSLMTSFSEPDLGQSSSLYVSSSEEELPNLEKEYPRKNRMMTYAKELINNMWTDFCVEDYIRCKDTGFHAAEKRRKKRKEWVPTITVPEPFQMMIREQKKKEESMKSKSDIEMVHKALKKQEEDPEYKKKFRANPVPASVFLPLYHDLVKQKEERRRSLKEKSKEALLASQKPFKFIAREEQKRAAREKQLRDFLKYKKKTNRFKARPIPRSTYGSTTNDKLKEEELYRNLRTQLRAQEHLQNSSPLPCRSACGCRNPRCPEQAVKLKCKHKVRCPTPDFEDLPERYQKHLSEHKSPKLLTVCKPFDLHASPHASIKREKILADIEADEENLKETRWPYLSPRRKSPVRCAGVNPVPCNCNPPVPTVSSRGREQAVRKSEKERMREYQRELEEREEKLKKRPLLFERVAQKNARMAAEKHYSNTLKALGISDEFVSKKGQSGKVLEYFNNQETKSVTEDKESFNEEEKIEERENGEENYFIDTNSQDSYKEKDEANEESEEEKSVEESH

B1: 3×HA-POC1B wild-type (full-length, 478 amino acids) (protein, UniProt Q8TC44-1 1-478)
chain: MASATEDPVLERYFKGHKAAITSLDLSPNGKQLATASWDTFLMLWNFKPHARAYRYVGHKDVVTSVQFSPHGNLLASASRDRTVRLWIPDKRGKFSEFKAHTAPVRSVDFSADGQFLATASEDKSIKVWSMYRQRFLYSLYRHTHWVRCAKFSPDGRLIVSCSEDKTIKIWDTTNKQCVNNFSDSVGFANFVDFNPSGTCIASAGSDQTVKVWDVRVNKLLQHYQVHSGGVNCISFHPSGNYLITASSDGTLKILDLLEGRLIYTLQGHTGPVFTVSFSKGGELFASGGADTQVLLWRTNFDELHCKGLTKRNLKRLHFDSPPHLLDIYPRTPHPHEEKVETVEINPKLEVIDLQISTPPVMDILSFDSTTTTETSGRTLPDKGEEACGYFLNPSLMSPECLPTTTKKKTEDMSDLPCESQRSIPLAVTDALEHIMEQLNVLTQTVSILEQRLTLTEDKLKDCLENQQKLFSAVQQKS
B2: 3×HA-POC1B-p.Arg106Pro (protein, UniProt Q8TC44-1 1-478)
chain: B1 chain with R106P
B3: 3×HA-POC1B-p.Gln67del (protein, UniProt Q8TC44-1 1-478)
chain: MASATEDPVLERYFKGHKAAITSLDLSPNGKQLATASWDTFLMLWNFKPHARAYRYVGHKDVVTSVFSPHGNLLASASRDRTVRLWIPDKRGKFSEFKAHTAPVRSVDFSADGQFLATASEDKSIKVWSMYRQRFLYSLYRHTHWVRCAKFSPDGRLIVSCSEDKTIKIWDTTNKQCVNNFSDSVGFANFVDFNPSGTCIASAGSDQTVKVWDVRVNKLLQHYQVHSGGVNCISFHPSGNYLITASSDGTLKILDLLEGRLIYTLQGHTGPVFTVSFSKGGELFASGGADTQVLLWRTNFDELHCKGLTKRNLKRLHFDSPPHLLDIYPRTPHPHEEKVETVEINPKLEVIDLQISTPPVMDILSFDSTTTTETSGRTLPDKGEEACGYFLNPSLMSPECLPTTTKKKTEDMSDLPCESQRSIPLAVTDALEHIMEQLNVLTQTVSILEQRLTLTEDKLKDCLENQQKLFSAVQQKS
B4: lebercilin (encoded by LCA5) (protein, UniProt Q86VQ0 1-697)
chain: MGERAGSPGTDQERKAGKHHYSYLSDFETPQSSGRSSLVSSSPASVRRKNPKRQTSDGQVHHQAPRKPSPKGLPNRKGVRVGFRSQSLNREPLRKDTDLVTKRILSARLLKINELQNEVSELQVKLAELLKENKSLKRLQYRQEKALNKFEDAENEISQLIFRHNNEITALKERLRKSQEKERATEKRVKDTESELFRTKFSLQKLKEISEARHLPERDDLAKKLVSAELKLDDTERRIKELSKNLELSTNSFQRQLLAERKRAYEAHDENKVLQKEVQRLYHKLKEKERELDIKNIYSNRLPKSSPNKEKELALRKNAACQSDFADLCTKGVQTMEDFKPEEYPLTPETIMCYENKWEEPGHLTLDLQSQKQDRHGEAGILNPIMEREEKFVTDEELHVVKQEVEKLEDEWEREELDKKQKEKASLLEREEKPEWETGRYQLGMYPIQNMDKLQGEEEERLKREMLLAKLNEIDRELQDSRNLKYPVLPLLPDFESKLHSPERSPKTYRFSESSERLFNGHHLQDISFSTPKGEGQNSGNVRSPASPNEFAFGSYVPSFAKTSERSNPFSQKSSFLDFQRNSMEKLSKDGVDLITRKEKKANLMEQLFGASGSSTISSKSSDPNSVASSKGDIDPLNFLPGNKGSRDQEHDEDEGFFLSEGRSFNPNRHRLKHADDKPAVKAADSVEDEIEEVALR

Positions count from the first letter of the chain named. Results are given in words; binding and its absence hold for the method and conditions named. In cells and extracts the contact can be indirect. Some results given as binding are weak or reduced against the parent protein; the word gives no strength. Tags and fused reporters may be left off the sequences shown.

This experiment deals with T1, 3×FLAG-FAM161A (full-length) (human). The experiment can be described thus: co-IP; HEK293T cells, cosynthesis for 48 hr; lysis in 50 mM Tris-HCl pH 7.5, 150 mM NaCl, 0.5% Triton X-100; anti-FLAG M2 agarose, 5 hr at 4°C; immunoblot with anti-HA or anti-FLAG.
In the case of B1, the binding entry was “binds”.
Under B2 stands “binds”; under B3, “binds”.
Under B4 stands “binds”.
